# Laboratory results reported in the supplement of paper PMC8728848.
# The list shows a part of the results.
# Tests used:
# Assay in all cases: glycan array binding signal (z-score within array); higher = stronger binding
# Conditions in all cases: glycan notation: IUPAC condensed, linker removed
# [1] = biological target: Gal(b1-4)GlcNAc(b1-3)[Gal(b1-4)GlcNAc(b1-6)]Gal(b1-4)GlcNAc
# Summary of the method: (§1)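 Columns mapping to the same glycan were averaged after glycan names were converted to IUPAC-condensed notation. The data come from 3228 arrays in the Consortium for Functional Glycomics database, limited to those with an available protein sequence. Binding is reported as a within-array Z-score averaged across arrays of one protein sequence and across linkers.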
# [2] = biological target: Gal(b1-4)GlcNAc(b1-3)[Gal(b1-4)GlcNAc(b1-6)]GalNAc
# Summary of the method: as §1
# [3] = biological target: Gal(b1-4)GlcNAc(b1-3)[GlcNAc(b1-6)]Gal(b1-4)GlcNAc
# Summary of the method: as §1
# [4] = biological target: Gal(b1-4)GlcNAc(b1-6)Gal(b1-4)GlcNAc
# Summary of the method: as §1
# [5] = biological target: Gal(b1-4)GlcNAc(b1-6)GalNAc
# Summary of the method: as §1
# [6] = biological target: Gal(b1-4)GlcNAc(b1-6)[Gal(b1-3)]GalNAc
# Summary of the method: as §1
# [7] = biological target: Gal(b1-4)GlcNAc(b1-6)[Gal(b1-4)GlcNAc(b1-3)]GalNAc
# Summary of the method: as §1
# Gal(b1-4)GlcNAc6P = biological target: Gal(b1-4)GlcNAc6P
# Summary of the method: as §1
# Gal(b1-6)Gal = biological target: Gal(b1-6)Gal
# Summary of the method: as §1
# Gal3S(b1-3)GalNAc = biological target: Gal3S(b1-3)GalNAc
# Summary of the method: as §1
# Gal3S(b1-3)GlcNAc = biological target: Gal3S(b1-3)GlcNAc
# Summary of the method: as §1
# [8] = biological target: Gal3S(b1-3)[Fuc(a1-4)]GlcNAc
# Summary of the method: as §1
# Gal3S(b1-4)Glc = biological target: Gal3S(b1-4)Glc
# Summary of the method: as §1
# Gal3S(b1-4)Glc6S = biological target: Gal3S(b1-4)Glc6S
# Summary of the method: as §1
# Gal3S(b1-4)GlcNAc = biological target: Gal3S(b1-4)GlcNAc
# Summary of the method: as §1
# Gal3S(b1-4)GlcNAc6S = biological target: Gal3S(b1-4)GlcNAc6S
# Summary of the method: as §1
# [9] = biological target: Gal3S(b1-4)[Fuc(a1-3)]Glc
# Summary of the method: as §1
# [10] = biological target: Gal3S(b1-4)[Fuc(a1-3)]Glc6S
# Summary of the method: as §1
# [11] = biological target: Gal3S(b1-4)[Fuc(a1-3)]GlcNAc
# Summary of the method: as §1
# [12] = biological target: Gal3S(b1-4)[Fuc(a1-3)]GlcNAc6S
# Summary of the method: as §1
# Gal3S4S(b1-4)GlcNAc = biological target: Gal3S4S(b1-4)GlcNAc
# Summary of the method: as §1
# Gal3S6S(b1-4)GlcNAc = biological target: Gal3S6S(b1-4)GlcNAc
# Summary of the method: as §1
# Gal3S6S(b1-4)GlcNAc6S = biological target: Gal3S6S(b1-4)GlcNAc6S
# Summary of the method: as §1
# Gal4S(b1-4)GlcNAc = biological target: Gal4S(b1-4)GlcNAc
# Summary of the method: as §1
# Gal4S6S(b1-4)GlcNAc = biological target: Gal4S6S(b1-4)GlcNAc
# Summary of the method: as §1
# Gal6P(b1-4)GlcNAc = biological target: Gal6P(b1-4)GlcNAc
# Summary of the method: as §1
# Gal6S(b1-3)GlcNAc = biological target: Gal6S(b1-3)GlcNAc
# Summary of the method: as §1
binder,measurement,setting,value
KILRGVCKKIMRTFLRRISKDILTGKK [NK2 (Sus scrofa)],glycan array binding signal (z-score),[1],-0.49
same,glycan array binding signal (z-score),[2],-0.461
same,glycan array binding signal (z-score),[3],-0.426
same,glycan array binding signal (z-score),[4],0.164
same,glycan array binding signal (z-score),[5],0.535
same,glycan array binding signal (z-score),[6],-0.522
same,glycan array binding signal (z-score),[7],0.025
same,glycan array binding signal (z-score),Gal(b1-4)GlcNAc6P,0.037
same,glycan array binding signal (z-score),Gal(b1-6)Gal,0.626
same,glycan array binding signal (z-score),Gal3S(b1-3)GalNAc,0.183
same,glycan array binding signal (z-score),Gal3S(b1-3)GlcNAc,0.725
same,glycan array binding signal (z-score),[8],0.208
same,glycan array binding signal (z-score),Gal3S(b1-4)Glc,-0.124
same,glycan array binding signal (z-score),Gal3S(b1-4)Glc6S,1.67
same,glycan array binding signal (z-score),Gal3S(b1-4)GlcNAc,1.36
same,glycan array binding signal (z-score),Gal3S(b1-4)GlcNAc6S,4.29
same,glycan array binding signal (z-score),[9],-0.169
same,glycan array binding signal (z-score),[10],1.45
same,glycan array binding signal (z-score),[11],1.2
same,glycan array binding signal (z-score),[12],1.59
same,glycan array binding signal (z-score),Gal3S4S(b1-4)GlcNAc,2.81
same,glycan array binding signal (z-score),Gal3S6S(b1-4)GlcNAc,2.92
same,glycan array binding signal (z-score),Gal3S6S(b1-4)GlcNAc6S,3.98
same,glycan array binding signal (z-score),Gal4S(b1-4)GlcNAc,0.794
same,glycan array binding signal (z-score),Gal4S6S(b1-4)GlcNAc,2.26
same,glycan array binding signal (z-score),Gal6P(b1-4)GlcNAc,-1.5
same,glycan array binding signal (z-score),Gal6S(b1-3)GlcNAc,1.05

# An excerpt of these results, bar-delimited:
binder | measurement | setting | value
KILRGVCKKIMRTFLRRISKDILTGKK [NK2 (Sus scrofa)] | glycan array binding signal (z-score) | Gal(b1-4)GlcNAc6P | 0.037
same | glycan array binding signal (z-score) | Gal(b1-6)Gal | 0.626
